Patent publication US8722052B2, “Vaccinia virus protein A46 peptide and use thereof” (priority 2008, dated 2014)
At least one peptide structure holds a part that was inferred or is arguable (an end, a ring closure or a residue). Ends that are not written are not given here.

Experiments:
TLR9 [1] = molecular target: T1, TLR9 (Mus musculus, UniProt Q9EQU3); assay: CpG-induced TNFα in RAW264.7 cells, ELISA; format: cell-based, murine; conditions: peptide 5 or 20 μM 1 h before CpG, supernatant 24 h
T1 construct: using the murine macrophage cell line RAW264.7; endogenous in cells; host or cells: RAW264.7
T1 sequence (Q9EQU3 26-1032): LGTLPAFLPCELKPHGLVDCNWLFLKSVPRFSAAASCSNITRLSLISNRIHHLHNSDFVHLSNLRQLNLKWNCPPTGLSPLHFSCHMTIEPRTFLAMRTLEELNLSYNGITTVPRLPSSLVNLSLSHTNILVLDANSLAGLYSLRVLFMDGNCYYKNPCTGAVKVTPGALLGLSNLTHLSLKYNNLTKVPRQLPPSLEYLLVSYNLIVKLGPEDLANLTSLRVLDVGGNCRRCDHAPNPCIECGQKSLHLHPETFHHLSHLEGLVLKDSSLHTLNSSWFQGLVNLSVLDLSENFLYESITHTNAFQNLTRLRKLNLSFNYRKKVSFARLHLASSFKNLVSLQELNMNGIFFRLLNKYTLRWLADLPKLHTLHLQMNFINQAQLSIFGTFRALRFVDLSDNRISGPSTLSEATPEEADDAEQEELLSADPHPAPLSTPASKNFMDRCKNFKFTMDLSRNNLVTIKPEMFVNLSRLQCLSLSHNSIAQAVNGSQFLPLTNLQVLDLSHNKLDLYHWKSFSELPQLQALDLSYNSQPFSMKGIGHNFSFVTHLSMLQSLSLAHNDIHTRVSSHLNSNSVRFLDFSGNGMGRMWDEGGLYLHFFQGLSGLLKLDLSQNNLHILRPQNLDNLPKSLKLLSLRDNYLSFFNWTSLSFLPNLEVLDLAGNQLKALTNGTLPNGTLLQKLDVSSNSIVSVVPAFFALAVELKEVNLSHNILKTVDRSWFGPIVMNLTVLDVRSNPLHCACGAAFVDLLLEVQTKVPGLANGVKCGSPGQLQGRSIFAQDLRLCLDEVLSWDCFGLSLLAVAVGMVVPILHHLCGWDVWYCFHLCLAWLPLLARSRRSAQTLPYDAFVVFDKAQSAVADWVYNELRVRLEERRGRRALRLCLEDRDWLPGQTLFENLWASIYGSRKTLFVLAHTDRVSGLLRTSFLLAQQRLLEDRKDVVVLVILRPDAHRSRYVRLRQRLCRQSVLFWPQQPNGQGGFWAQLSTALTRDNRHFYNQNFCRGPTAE
Procedure: (§1) FIGS. 2A and B are bar charts showing the effect of peptides derived from A46 on CpG-induced TNFα in murine RAW264.7 cells. A46 peptides were added to the cells at a concentration of 5 or 20 μM 1 hour before stimulating with 1 pg/ml CpG. Supernatants were collected 24 hours after stimulation and assayed for TNFα by ELISA. No peptides were added into the control wells (black bars). (A) peptides A461-A467 (SEQ ID NO. 17 to 23). (B) peptides A468-A4614 (SEQ ID NO. 24 to 30) (excluding A4612 SEQ ID NO. 28). Data is representative of at least two experiments each performed in triplicate and is expressed as mean±s.d;
(§2) Cytokine and chemokine production from cells or mouse serum was measured by ELISA using Duoset kits from R&D systems, according to the manufacturer's instructions.
(§3) These peptides were initially screened for effects on TLR-induced gene induction in vitro using the murine macrophage cell line RAW264.7. Unmethylated CpG dinucleotides of bacterial DNA sequences are detected by TLR9, which leads to production of pro-inflammatory cytokines and chemokines, including TNFα via a MyD88-dependent pathway (Latz et al, 2004). […] The effect of the peptides on two TLR9-induced cytokines, namely TNFα and MIP-2, was measured by ELISA. TNFα is NFκB-dependent, and MIP-2 as well as NFκB also requires IRFs for transcriptional activation (De Filippo et al, 2008). […]

TLR9 [2] = molecular target: T1, TLR9; assay: CpG-induced MIP-2 production in RAW264.7 cells, ELISA; format: cell-based, murine; conditions: peptide 5 or 20 μM 1 h before 1 μg/ml CpG, supernatant 24 h
Procedure: as §1, with “1A” for “2A”, “MIP-2 production” for “TNFα in”, “cells. Cells were seeded in 96 well plates (1.5×10^5 cells/nil) at least 24 hours before treatment.” for “cells.”, “μg/ml” for “pg/ml”, “MIP2” for “TNFα”
as §2
as §3, with “ELISA.” for “ELISA. TNFα is NFκB-dependent, and MIP-2 as well as NFκB also requires IRFs for transcriptional activation (De Filippo et al, 2008).”

TLR4 = assay: LPS-induced TNFα in PMA-differentiated U937 cells, ELISA; format: cell-based, human; conditions: peptide 5 or 20 μM 1 h before 100 ng/ml LPS, 24 h
Procedure: as §1, with “3A” for “2A”, “LPS-induced” for “CpG-induced”, “human U937” for “murine RAW264.7”, “cells. Cells were differentiated with 200 nM PMA and seeded in 96 well plates (2×10^5 cells/ml) 24 hours before treatment.” for “cells.”, “100 ng/ml LPS.” for “1 pg/ml CpG.”
as §2
LPS is a component of a cell wall of Gram-negative bacteria which is recognised by a homodimer of TLR4 and signals to NFκB via both a MyD88- and TRIF-dependent pathway (O'Neill and Bowie, 2007). In order to examine the effect of the peptides on TLR4-dependent gene induction in human cells, the human monocytic lymphoma cell line U937 was used. U937 cells were differentiated into macrophages by treatment with 200 nM PMA for 24 hours before any further manipulations. […]

Sequence | inhibition of CpG-induced TNFα production (TLR9 [1]) | inhibition of CpG-induced MIP-2 secretion (TLR9 [2]) | inhibition of LPS (TLR4)-induced TNFα production (TLR4)
DSGLFDFVNFVRRRRRRRRR [Peptide A469] | inhibited TNFα production |  | 
TYLYNKYSFKLRRRRRRRRR [Peptide A463] |  | inhibited CpG-induced MIP-2 secretion | did not inhibit TLR4 responses
